Data as given in paper PMC7329144.
No constants are given. Whether binding was seen depends on the method and setting. For some of these results: Binding seen in cells or lysates may run through a third protein. Some entries that bind do so weakly or less than the wild type. For some of these results: Sequences can lack the tags named with a protein. One block for each molecule: values may come before it.

Chains of the proteins cited; added tags and fusions are not shown.
UniProt Q9Y2J2: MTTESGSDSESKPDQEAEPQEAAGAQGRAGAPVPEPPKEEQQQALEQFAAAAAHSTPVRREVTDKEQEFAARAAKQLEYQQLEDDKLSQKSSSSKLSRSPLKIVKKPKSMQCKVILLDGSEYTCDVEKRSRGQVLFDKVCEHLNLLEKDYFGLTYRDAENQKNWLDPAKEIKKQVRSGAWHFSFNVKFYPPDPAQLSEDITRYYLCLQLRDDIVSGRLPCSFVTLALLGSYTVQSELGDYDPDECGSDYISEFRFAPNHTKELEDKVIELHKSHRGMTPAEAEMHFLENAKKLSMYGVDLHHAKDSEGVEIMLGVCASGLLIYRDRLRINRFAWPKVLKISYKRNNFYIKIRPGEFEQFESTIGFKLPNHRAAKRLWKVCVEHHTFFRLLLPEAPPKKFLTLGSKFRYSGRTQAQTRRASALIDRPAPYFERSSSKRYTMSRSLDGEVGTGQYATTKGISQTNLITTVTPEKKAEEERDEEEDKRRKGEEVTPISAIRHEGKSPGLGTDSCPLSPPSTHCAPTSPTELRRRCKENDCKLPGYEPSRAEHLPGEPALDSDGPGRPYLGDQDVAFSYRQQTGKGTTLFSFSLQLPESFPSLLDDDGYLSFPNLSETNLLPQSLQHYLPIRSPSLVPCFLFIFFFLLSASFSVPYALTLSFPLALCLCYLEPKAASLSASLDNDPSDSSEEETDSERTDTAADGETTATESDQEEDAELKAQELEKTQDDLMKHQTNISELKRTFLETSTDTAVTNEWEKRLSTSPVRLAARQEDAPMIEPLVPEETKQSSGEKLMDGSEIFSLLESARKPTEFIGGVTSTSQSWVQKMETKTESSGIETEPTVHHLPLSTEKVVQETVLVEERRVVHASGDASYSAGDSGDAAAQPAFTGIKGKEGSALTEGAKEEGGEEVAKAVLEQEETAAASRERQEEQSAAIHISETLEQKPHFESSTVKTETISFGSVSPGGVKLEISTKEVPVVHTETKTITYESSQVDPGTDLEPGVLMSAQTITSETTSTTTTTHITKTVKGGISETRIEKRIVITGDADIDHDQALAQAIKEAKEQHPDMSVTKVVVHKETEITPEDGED
UniProt Q9HCM4: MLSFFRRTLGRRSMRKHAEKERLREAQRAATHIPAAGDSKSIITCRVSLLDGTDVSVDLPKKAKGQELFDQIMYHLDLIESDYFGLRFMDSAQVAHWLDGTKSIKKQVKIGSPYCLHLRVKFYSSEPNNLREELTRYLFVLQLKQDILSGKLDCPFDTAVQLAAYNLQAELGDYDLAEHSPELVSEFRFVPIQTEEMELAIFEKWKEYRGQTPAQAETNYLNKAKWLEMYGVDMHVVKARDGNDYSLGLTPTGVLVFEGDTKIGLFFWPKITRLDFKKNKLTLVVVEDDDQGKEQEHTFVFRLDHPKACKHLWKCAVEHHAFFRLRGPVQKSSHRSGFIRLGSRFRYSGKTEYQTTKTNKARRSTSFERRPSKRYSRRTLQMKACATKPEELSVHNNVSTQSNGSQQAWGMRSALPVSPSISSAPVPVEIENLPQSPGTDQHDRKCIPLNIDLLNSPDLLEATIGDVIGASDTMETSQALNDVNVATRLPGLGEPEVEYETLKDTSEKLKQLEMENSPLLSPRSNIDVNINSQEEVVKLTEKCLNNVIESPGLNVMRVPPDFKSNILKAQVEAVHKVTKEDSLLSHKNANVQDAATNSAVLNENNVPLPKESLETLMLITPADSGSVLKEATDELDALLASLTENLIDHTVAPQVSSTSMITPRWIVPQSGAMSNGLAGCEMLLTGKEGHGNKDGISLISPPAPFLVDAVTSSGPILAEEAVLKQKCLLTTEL
UniProt P13607: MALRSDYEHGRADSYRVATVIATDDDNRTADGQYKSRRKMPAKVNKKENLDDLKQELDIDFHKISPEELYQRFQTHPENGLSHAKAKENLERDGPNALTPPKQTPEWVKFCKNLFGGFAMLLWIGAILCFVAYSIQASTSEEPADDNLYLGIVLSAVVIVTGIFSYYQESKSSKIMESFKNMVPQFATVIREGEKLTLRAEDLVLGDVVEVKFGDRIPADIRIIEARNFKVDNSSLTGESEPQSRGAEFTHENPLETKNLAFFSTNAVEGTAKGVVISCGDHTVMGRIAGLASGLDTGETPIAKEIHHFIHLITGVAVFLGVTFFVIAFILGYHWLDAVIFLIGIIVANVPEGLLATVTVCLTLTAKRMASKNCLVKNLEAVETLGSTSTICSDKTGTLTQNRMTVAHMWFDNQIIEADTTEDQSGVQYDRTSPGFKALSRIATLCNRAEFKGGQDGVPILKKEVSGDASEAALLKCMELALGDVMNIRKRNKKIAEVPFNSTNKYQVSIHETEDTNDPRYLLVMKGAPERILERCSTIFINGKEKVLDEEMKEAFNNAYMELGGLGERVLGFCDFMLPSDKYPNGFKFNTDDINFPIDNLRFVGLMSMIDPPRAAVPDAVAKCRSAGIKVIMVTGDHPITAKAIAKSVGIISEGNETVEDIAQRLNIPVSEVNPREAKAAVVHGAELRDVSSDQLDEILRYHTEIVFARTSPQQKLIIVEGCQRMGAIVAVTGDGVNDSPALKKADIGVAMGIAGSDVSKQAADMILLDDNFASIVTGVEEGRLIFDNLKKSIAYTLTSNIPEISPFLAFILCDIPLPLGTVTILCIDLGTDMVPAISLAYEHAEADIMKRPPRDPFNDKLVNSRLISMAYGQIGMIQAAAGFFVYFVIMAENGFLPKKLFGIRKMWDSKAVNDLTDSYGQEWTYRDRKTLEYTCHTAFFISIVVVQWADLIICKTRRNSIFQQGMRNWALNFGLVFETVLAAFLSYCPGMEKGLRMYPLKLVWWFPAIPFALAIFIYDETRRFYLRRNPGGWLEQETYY
UniProt Q9V8R9: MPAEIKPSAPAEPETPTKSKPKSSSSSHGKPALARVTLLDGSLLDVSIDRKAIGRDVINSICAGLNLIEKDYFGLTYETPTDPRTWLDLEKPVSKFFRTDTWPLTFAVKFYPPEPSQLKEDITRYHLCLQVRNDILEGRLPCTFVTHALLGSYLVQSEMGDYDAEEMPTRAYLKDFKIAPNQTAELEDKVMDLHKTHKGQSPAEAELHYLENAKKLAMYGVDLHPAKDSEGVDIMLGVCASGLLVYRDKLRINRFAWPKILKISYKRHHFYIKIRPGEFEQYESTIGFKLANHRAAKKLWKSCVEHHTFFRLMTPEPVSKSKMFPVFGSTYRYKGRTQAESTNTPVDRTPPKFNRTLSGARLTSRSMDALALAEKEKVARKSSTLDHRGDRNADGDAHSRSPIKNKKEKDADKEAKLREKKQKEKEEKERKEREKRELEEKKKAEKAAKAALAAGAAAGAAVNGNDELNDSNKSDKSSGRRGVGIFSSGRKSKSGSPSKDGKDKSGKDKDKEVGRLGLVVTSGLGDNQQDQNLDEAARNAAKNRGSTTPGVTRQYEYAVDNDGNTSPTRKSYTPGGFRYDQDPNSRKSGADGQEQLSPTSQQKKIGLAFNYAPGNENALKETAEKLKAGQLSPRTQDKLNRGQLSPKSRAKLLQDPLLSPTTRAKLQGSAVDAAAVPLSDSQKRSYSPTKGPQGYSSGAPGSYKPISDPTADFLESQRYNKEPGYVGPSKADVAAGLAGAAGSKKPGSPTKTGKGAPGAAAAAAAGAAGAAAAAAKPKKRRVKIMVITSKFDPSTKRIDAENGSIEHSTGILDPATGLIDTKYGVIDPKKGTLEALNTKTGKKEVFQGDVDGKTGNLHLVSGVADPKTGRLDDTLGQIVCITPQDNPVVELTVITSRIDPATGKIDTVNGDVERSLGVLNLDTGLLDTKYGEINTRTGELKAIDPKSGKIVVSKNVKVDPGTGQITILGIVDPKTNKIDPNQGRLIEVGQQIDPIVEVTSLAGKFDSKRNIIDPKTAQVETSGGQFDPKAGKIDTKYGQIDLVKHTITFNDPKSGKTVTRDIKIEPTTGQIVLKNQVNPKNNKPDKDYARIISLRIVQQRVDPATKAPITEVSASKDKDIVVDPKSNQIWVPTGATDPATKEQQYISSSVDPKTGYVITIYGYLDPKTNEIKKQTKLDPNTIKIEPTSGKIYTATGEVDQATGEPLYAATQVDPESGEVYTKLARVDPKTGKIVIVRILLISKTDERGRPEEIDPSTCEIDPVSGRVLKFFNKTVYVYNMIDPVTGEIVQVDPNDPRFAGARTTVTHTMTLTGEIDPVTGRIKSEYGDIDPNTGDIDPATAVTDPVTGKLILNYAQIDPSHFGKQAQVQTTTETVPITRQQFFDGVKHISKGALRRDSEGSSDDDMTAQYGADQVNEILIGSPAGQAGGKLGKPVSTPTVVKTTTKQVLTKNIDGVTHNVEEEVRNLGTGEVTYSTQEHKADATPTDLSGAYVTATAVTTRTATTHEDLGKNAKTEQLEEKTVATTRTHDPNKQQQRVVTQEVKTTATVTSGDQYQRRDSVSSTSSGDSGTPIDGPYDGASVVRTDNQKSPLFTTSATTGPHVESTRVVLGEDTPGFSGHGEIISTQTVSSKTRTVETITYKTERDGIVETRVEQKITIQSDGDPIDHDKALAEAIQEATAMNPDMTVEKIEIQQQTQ

Tests used:
[1] = biological target: T1, endogenous Tctp (Drosophila (endogenous in embryos)) (UniProt Q9VGS2); test: co-IP; endogenous proteins from wild-type embryo extracts; rabbit anti-Tctp on protein G agarose beads, 4°C overnight
T1 sequence: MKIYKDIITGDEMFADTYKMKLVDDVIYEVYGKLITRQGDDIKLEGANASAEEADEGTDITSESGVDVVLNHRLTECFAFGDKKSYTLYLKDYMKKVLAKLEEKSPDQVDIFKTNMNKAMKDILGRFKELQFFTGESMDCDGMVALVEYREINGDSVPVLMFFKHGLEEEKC

[2] = biological target: His-GST-EPB41L3 (human Cora homolog) (human) (UniProt Q9Y2J2); test: pull-down; GST-tagged proteins as baits, MBP-tagged Tctp as prey; 10 μg/mL of each; PDB buffer (20 mM Tris-HCl pH 7.5, 150 mM NaCl, 0.5 mM EDTA, 10% glycerol, 0.1% Triton X-100, 1 mM DTT); both purified
[3] = biological target: His-GST-EPB41L5 (human Yrt homolog) (human) (UniProt Q9HCM4); test: as above
Flag-ATPα (Drosophila) = Flag-ATPα (Drosophila) (UniProt P13607); test: co-IP; S2 cells transiently transfected with Flag- and Myc-tagged constructs, lysed 24 h after transfection; lysis buffer 20 mM HEPES pH 7.5, 100 mM KCl, 2.5 mM EDTA, 5% glycerol, 0.05% Triton X-100; immunoprecipitation at 4°C overnight

binding [1]: binds
Molecule: endogenous Cora isoform of about 200 kDa (from UniProt Q9V8R9 1-1698)

binding [2]: binds weakly | binding [3]: binds
B1: human TCTP (protein, UniProt P13693 1-172)
chain: MIIYRDLISHDEMFSDIYKIREIADGLCLEVEGKMVSRTEGNIDDSLIGGNASAEGPEGEGTESTVITGVDIVMNHHLQETSFTKEAYKKYIKDYMKSIKGKLEEQRPERVKPFMTGAAEQIKHILANFKNYQFFIGENMNPDGMVALLDYREDGVTPYMIFFKDGLEMEKC

binding (Flag-ATPα (Drosophila)): binds
B2: Myc-Tctp (protein, UniProt Q9VGS2 1-172)
chain: MKIYKDIITGDEMFADTYKMKLVDDVIYEVYGKLITRQGDDIKLEGANASAEEADEGTDITSESGVDVVLNHRLTECFAFGDKKSYTLYLKDYMKKVLAKLEEKSPDQVDIFKTNMNKAMKDILGRFKELQFFTGESMDCDGMVALVEYREINGDSVPVLMFFKHGLEEEKC
